This assay has as its target PacL1 protein fused to a C-terminal ALFA tag (M. tuberculosis) (UniProt P96874). The assay can be described thus: proximity labelling.

The chains behind the UniProt entries cited, without tags or fusion partners. Where a name states a change or a piece, a line headed by the entry shows the natural chain unless it says otherwise.
UniProt P96874: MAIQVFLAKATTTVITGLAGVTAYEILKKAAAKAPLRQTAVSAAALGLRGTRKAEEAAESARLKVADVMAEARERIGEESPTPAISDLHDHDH
UniProt P9WIP9: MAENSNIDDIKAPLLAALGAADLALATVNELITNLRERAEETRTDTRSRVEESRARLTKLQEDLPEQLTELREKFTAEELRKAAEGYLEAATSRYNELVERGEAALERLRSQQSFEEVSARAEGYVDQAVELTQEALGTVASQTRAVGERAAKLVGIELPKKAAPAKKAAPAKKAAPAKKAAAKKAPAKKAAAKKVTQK
UniProt P9WJD9: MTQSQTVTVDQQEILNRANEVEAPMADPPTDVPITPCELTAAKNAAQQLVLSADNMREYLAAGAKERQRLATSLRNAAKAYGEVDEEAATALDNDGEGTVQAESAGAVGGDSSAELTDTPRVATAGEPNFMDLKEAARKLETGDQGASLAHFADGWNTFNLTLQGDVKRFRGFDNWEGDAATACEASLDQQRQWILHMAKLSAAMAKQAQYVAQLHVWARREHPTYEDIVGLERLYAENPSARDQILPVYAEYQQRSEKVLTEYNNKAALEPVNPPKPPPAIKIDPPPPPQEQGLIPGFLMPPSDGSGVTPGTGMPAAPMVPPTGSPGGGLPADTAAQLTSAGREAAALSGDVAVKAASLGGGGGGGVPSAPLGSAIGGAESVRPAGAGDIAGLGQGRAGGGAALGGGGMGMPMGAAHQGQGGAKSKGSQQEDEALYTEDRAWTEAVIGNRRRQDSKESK
UniProt Q79FE1: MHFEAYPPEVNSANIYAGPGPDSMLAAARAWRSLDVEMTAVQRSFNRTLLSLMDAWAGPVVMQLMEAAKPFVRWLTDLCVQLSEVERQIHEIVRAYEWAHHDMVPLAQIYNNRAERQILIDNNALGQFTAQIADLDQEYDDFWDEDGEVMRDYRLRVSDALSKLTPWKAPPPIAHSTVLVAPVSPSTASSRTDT
UniProt P9WH95: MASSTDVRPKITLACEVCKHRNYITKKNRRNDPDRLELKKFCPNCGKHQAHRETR
UniProt P71622: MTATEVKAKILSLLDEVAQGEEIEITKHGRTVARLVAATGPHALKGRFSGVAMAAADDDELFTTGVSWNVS
UniProt P9WGV3: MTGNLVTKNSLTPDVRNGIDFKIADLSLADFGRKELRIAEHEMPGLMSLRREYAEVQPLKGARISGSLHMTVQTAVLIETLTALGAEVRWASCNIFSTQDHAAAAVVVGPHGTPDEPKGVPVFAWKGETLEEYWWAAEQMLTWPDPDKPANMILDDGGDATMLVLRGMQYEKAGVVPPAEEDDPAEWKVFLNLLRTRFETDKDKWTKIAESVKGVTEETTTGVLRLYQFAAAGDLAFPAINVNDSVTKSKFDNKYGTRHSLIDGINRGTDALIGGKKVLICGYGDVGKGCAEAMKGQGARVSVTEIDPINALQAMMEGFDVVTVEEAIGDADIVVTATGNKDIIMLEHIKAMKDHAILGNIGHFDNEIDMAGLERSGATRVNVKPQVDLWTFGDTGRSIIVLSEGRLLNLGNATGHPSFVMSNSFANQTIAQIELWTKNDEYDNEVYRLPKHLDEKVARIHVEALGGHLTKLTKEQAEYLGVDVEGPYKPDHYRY
UniProt O05576: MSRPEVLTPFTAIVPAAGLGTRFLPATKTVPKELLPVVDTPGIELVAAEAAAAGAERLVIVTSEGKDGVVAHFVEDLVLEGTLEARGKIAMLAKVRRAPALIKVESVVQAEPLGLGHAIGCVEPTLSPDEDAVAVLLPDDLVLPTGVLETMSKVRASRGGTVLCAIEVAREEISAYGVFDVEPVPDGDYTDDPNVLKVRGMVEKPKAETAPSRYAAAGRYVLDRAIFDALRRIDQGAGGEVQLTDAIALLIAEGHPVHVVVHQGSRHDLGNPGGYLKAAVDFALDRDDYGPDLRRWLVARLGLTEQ
UniProt P9WJ15: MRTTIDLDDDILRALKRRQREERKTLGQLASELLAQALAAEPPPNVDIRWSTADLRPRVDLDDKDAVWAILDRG
UniProt P9WNK5: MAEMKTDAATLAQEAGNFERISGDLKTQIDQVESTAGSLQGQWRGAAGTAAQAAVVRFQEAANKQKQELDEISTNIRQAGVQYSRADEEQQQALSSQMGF

These are yes or no findings as the source states them, for the method shown. In cells and extracts the contact can be indirect. Here binding means that the protein was enriched with, or labelled near, the bait; the list need not be complete.

With “Iron-regulated heparin-binding hemagglutinin (from UniProt P9WIP9 1-199)”, the binding entry was “binds”.

With Rv3881c (from UniProt P9WJD9 1-460), the binding entry was “binds”.

Turning to PPE41 (from UniProt Q79FE1 1-194), the binding result is listed as “binds”.

As to “Large ribosomal subunit protein bL33 (from UniProt P9WH95)”, the binding entry was “binds”.

As to Rv2830c (from UniProt P71622 1-71), the binding entry is on record as “binds”.

Take “Adenosylhomocysteinase (from UniProt P9WGV3 1-495)”: the binding result is reported as “binds”.

For the molecule “UTP--glucose-1-phosphate uridylyltransferase (from UniProt O05576)”, the binding result is “binds”.

For Rv3697A (from UniProt P9WJ15 1-74), the binding result is recorded as “binds”.

As for “EsxB (CFP-10), ESAT-6-like protein (from UniProt P9WNK5 1-100)”, the binding entry is “binds”.

B1: Rv0123 (protein, UniProt O07173 1-122)
chain: MTKKPRNPADYVIGDDVEVSDVDLKQEEVYVDGERLTDERVEQMASESLRLAREREANLIPGGKSLSGGSAHSPAVQVVVSKATHAKLKELARSRKMSVSKLLRPVLDEFVQRETGRILPRR
For B1, the binding result is reported as “binds”.

B2: TB9.4 (protein, UniProt Q6MWZ8 1-90)
chain: MEVKIGITDSPRELVFSSAQTPSEVEELVSNALRDDSGLLTLTDERGRRFLIHTARIAYVEIGVADARRVGFGVGVDAAAGSAGKVATSG
As to B2, the binding entry was “binds”.

B3: Rv2302 (protein, UniProt P9WLD5 1-80)
chain: MHAKVGDYLVVKGTTTERHDQHAEIIEVRSADGSPPYVVRWLVNGHETTVYPGSDAVVVTATEHAEAEKRAAARAGHAAT
In the case of B3, the binding entry is reported as “binds”.

B4: Rv0121c (protein, UniProt O07171 1-144)
chain: MGEFDPKLRFAQSPVARLATSTPDGTPHLVPVVFALGARRPAEATGADVIYTAVDAKRKTTQRLRRLANLEHNPRASVLVDSYADDWTQLWWVRADGVAAIHRDGEVMRAAYRLLRAKYAQYQSVPLNGPVIAIAVQRWASWHA
On to B4, for which the binding result was “binds”.

B5: Rv3357 (protein, UniProt P9WF25 1-91)
chain: MSISASEARQRLFPLIEQVNTDHQPVRITSRAGDAVLMSADDYDAWQETVYLLRSPENARRLMEAVARDKAGHSAFTKSVDELREMAGGEE
With B5, the binding result is “binds”.

B6: Transcription elongation factor GreA (protein, UniProt P9WMT9 1-164)
chain: MTDTQVTWLTQESHDRLKAELDQLIANRPVIAAEINDRREEGDLRENGGYHAAREEQGQQEARIRQLQDLLSNAKVGEAPKQSGVALPGSVVKVYYNGDKSDSETFLIATRQEGVSDGKLEVYSPNSPLGGALIDAKVGETRSYTVPNGSTVSVTLVSAEPYHS
For the molecule B6, the binding entry is given as “binds”.

B7: Rv3559c (protein, UniProt I6YCF0 1-262)
chain: MNLSVAPKEIAGHGLLDGKVVVVTAAAGTGIGSATARRALAEGADVVISDHHERRLGETAAELSALGLGRVEHVVCDVTSTAQVDALIDSTTARMGRLDVLVNNAGLGGQTPVADMTDDEWDRVLDVSLTSVFRATRAALRYFRDAPHGGVIVNNASVLGWRAQHSQSHYAAAKAGVMALTRCSAIEAAEYGVRINAVSPSIARHKFLDKTASAELLDRLAAGEAFGRAAEPWEVAATIAFLASDYSSYLTGEVISVSCQHP
Consider B7, for which the binding result was “binds”.

B8: Rv2114 (protein, UniProt O33249 1-207)
chain: MSAPERVTGLSGQRYGEVLLVTPGEAGPQATVYNSFPLNDCPAELWSALDPQALATEHKAATALLNGPRYWLMNAIEKAPQGPPVTKTFGGIEMLQQATVLLSSMNPAPYTVSQVSRNTVFVFNAGEEVYELQDPKGQRWVMQTWSQVVDPNLSRADLPKLGERLNLPAGWSYHTRVLTSELRVDTTNREARVLQDDLTNSYSLVTA
For the molecule B8, the binding entry is “binds”.

B9: Rv0250c (protein, UniProt O53672 1-97)
chain: MSTTAELAELHDLVGGLRRCVTALKARFGDNPATRRIVIDADRILTDIELLDTDVSELDLERAAVPQPSEKIAIPDTEYDREFWRDVDDEGVGGHRY
On to B9, for which the binding result was “binds”.

B10: Rv1566c (protein, UniProt O06624 29-230)
chain: AADPATRPVDYQQITDVVIARGLSQRGVPFSWAGGGISGPTRGTGTGINTVGFDASGLIQYAYAGAGLKLPRSSGQMYKVGQKVLPQQARKGDLIFYGPEGTQSVALYLGKGQMLEVGDVVQVSPVRTNGMTPYLVRVLGTQPTPVQQAPVQPAPVQQAPVQQAPVQQAPVQQAPVQQAPVQQAPVQQAPVQPPPFGTARSR
For the molecule B10, the binding result is “binds”.

B11: Rv3788 (protein, UniProt P9WKW7 1-161)
chain: MSEKVESKGLADAARDHLAAELARLRQRRDRLEVEVKNDRGMIGDHGDAAEAIQRADELAILGDRINELDRRLRTGPTPWSGSETLPGGTEVTLRFPDGEVVTMHVISVVEETPVGREAETLTARSPLGQALAGHQPGDTVTYSTPQGPNQVQLLAVKLPS
B11: the binding entry is on record as “binds”.

B12: Rv3898c (protein, UniProt O05447 1-110)
chain: MTGDQNPAPGPAPGVPIKVTPEILLQVLTTPPASGPAPFPAVPVDLPAPADIANGALFAAGNSGVPGDVESSGLEDLDRRAHAADAVQKFSANEADAAQQFQGVGAQAEA
With B12, the binding entry is “binds”.

B13: ESX-1 secretion-associated protein EspJ (protein, UniProt P9WJC3 1-280)
chain: MAEPLAVDPTGLSAAAAKLAGLVFPQPPAPIAVSGTDSVVAAINETMPSIESLVSDGLPGVKAALTRTASNMNAAADVYAKTDQSLGTSLSQYAFGSSGEGLAGVASVGGQPSQATQLLSTPVSQVTTQLGETAAELAPRVVATVPQLVQLAPHAVQMSQNASPIAQTISQTAQQAAQSAQGGSGPMPAQLASAEKPATEQAEPVHEVTNDDQGDQGDVQPAEVVAAARDEGAGASPGQQPGGGVPAQAMDTGAGARPAASPLAAPVDPSTPAPSTTTTL
B13: the binding entry is “binds”.

B14: Rv2857c (protein, UniProt I6Y1W3 1-258)
chain: MMDLSQRLAGRVAVITGGGSGIGLAAGRRMRAEGATIVVGDVDVEAGGAAADELSGLFVPTDVCDEDAVNGLFDGAAETYGRIDIAFNNAGISPPEDNLIENTELAAWQRVQDVNLKSVYLCCRAALRHMVLAGKGSIVNTASFVAVMGSATSQISYTASKGGVLAMSRELGVQFARQGIRVNALCPGPVNTPLLQELFAKNPERAARRMVHVPLGRFAEPDEIAAAVAFLASDDASFITASTFLVDGGISSAYVTPL
B14: the binding result is listed as “binds”.

B15: Rv3474 (protein, UniProt P9WKH5 1-108)
chain: MSGGSSRRYPPELRERAVRMVAEIRGQHDSEWAAISEVARLLGVGCAETVRKWVRQAQVDAGARPGTTTEESAELKRLRRDNAELRRANAILKTASAFFAAELDRPAR
Regarding B15, the binding entry is listed as “binds”.

B16: Cold shock protein A (protein, UniProt P9WP75 1-67)
chain: MPQGTVKWFNAEKGFGFIAPEDGSADVFVHYTEIQGTGFRTLEENQKVEFEIGHSPKGPQATGVRSL
For the molecule B16, the binding entry was “binds”.

B17: Elongation factor P (protein, UniProt P9WNM3 1-187)
chain: MATTADFKNGLVLVIDGQLWTITEFQHVKPGKGPAFVRTKLKNVLSGKVVDKTFNAGVKVDTATVDRRDTTYLYRDGSDFVFMDSQDYEQHPLPEALVGDAARFLLEGMPVQVAFHNGVPLYIELPVTVELEVTHTEPGLQGDRSSAGTKPATLQTGAQINVPLFINTGDKLKVDSRDGSYLGRVNA
Take B17: the binding entry was “binds”.

For the origin of these results see paper PMC13043812.
